Values from PubChem BioAssay AID1671195 (Yale University, 2021)
This is one part, drawn at random, of about 22,000 reagents. Of all reagents, about 1,510 (6.9%) are marked active. 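Active includes knockdowns raising or lowering LDL uptake; positive z-scores mean more uptake, negative mean less.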

Assay: 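Genes whose knockdown alters LDL uptake in liver cancer cells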 (primary screen)
Cell system: human Huh7 hepatoma cells
Reagent: siRNA pool against human genes, 18 nM
Time to read-out: about 2 to 2.5 days of knockdown, then 8 h LDL uptake
Treatment: DiI-labelled LDL at 30 µg/ml for 8 h, in lipoprotein-deficient serum medium
Measurement: 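Per-cell DiI-LDL intensity by automated imaging; well means scaled to the plate median and given as a robust z-score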
Direction: robust z-score: higher = more LDL uptake after knockdown
Active means: 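Active when two or more replicates show a robust z-score above 2 or below -2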

The opening 7 entries as a preview:
gene | robust z-score, replicate 1 | robust z-score, replicate 2 | robust z-score, replicate 3 | Call
COA5 (GeneID 493753) | 0.523 | -0.73 | -0.54 | inactive
VAV1 (GeneID 7409) | -1.37 | -0.983 | -0.978 | inactive
TANGO2 (GeneID 128989) | 0.245 | -0.334 | -0.642 | inactive
ZBED4 (GeneID 9889) | 0.964 | 3.29 | 3.25 | active
EIF3C (GeneID 8663) | -1.76 | -1.56 | -1.14 | inactive
CAPN6 (GeneID 827) | -0.886 | -0.978 | -1.2 | inactive
ZBTB20 (GeneID 26137) | 1.11 | 0.541 | 0.625 | inactive

Main list, repeating the preview:
gene | robust z-score, replicate 1 | robust z-score, replicate 2 | robust z-score, replicate 3 | Call
COA5 (GeneID 493753) | 0.523 | -0.73 | -0.54 | inactive
VAV1 (GeneID 7409) | -1.37 | -0.983 | -0.978 | inactive
TANGO2 (GeneID 128989) | 0.245 | -0.334 | -0.642 | inactive
ZBED4 (GeneID 9889) | 0.964 | 3.29 | 3.25 | active
EIF3C (GeneID 8663) | -1.76 | -1.56 | -1.14 | inactive
CAPN6 (GeneID 827) | -0.886 | -0.978 | -1.2 | inactive
ZBTB20 (GeneID 26137) | 1.11 | 0.541 | 0.625 | inactive
RC3H2 (GeneID 54542) | -1.95 | -0.301 | -2.67 | active
SSBP3-AS1 (GeneID 619518) | -3.09 | -3.13 | -2.9 | active
GABRR2 (GeneID 2570) | -0.665 | 0.0778 | -0.274 | inactive
MYORG (GeneID 57462) | -0.316 | -0.83 | -0.776 | inactive
LINC01588 (GeneID 283551) | 0.252 | -0.224 | -0.283 | inactive
SIRT7 (GeneID 51547) | -0.268 | -0.655 | -0.406 | inactive
LOC441126 (retired record) (GeneID 441126) | -1.01 | -1.4 | -1.19 | inactive
ETAA1 (GeneID 54465) | -0.864 | 0.36 | 1.48 | inactive
TSGA10 (GeneID 80705) | 0.838 | -0.0226 | 0.138 | inactive
COG2 (GeneID 22796) | -0.86 | -0.599 | -0.812 | inactive
TMEM131 (GeneID 23505) | 1.28 | 2.06 | 0.831 | inactive
ZNF146 (GeneID 7705) | 0.00666 | 0.279 | 0.327 | inactive
LOC400411 (retired record) (GeneID 400411) | 0.191 | -0.0925 | -0.118 | inactive
USP8 (GeneID 9101) | 0.318 | 0.375 | 0.531 | inactive
PLCG1 (GeneID 5335) | 0.531 | -0.24 | -0.466 | inactive
XAGE1B (GeneID 653067) | -0.557 | -1.47 | -1.27 | inactive
LRFN1 (GeneID 57622) | -0.907 | -0.57 | -1.11 | inactive
C1QTNF4 (GeneID 114900) | 1.36 | 0.333 | 0.764 | inactive
PAPPA (GeneID 5069) | -1.13 | -1.22 | -1.38 | inactive
MAPKAPK2 (GeneID 9261) | -1.09 | -0.341 | -0.396 | inactive
RFC5 (GeneID 5985) | -0.499 | 0.359 | 0.155 | inactive
SRP19 (GeneID 6728) | -0.249 | -0.117 | 0.316 | inactive
PGM2L1 (GeneID 283209) | -0.73 | -0.846 | -1.14 | inactive
LRRC59 (GeneID 55379) | -0.927 | -0.273 | 0.841 | inactive
ABHD17C (GeneID 58489) | 0.027 | -0.274 | 0.663 | inactive
PPP1R14C (GeneID 81706) | -1.86 | -1.65 | -1.75 | inactive
ERV3-1 (GeneID 2086) | 2.18 | 1.14 | 1.61 | inactive
ZNF614 (GeneID 80110) | 2.24 | 1.24 | 0.484 | inactive
CXADRP3 (GeneID 440224) | 0.263 | 0.835 | 0.581 | inactive
POMZP3 (GeneID 22932) | 0.848 | 1.5 | 1.47 | inactive
NFS1 (GeneID 9054) | -1.28 | -0.637 | -1.25 | inactive
EFCAB5 (GeneID 374786) | 0.136 | 0.947 | 0.3 | inactive
SELP (GeneID 6403) | -0.432 | -1.03 | -0.957 | inactive
SLC39A9 (GeneID 55334) | -0.0276 | -0.212 | -0.337 | inactive
UBE2I (GeneID 7329) | -0.871 | -1.85 | -1.38 | inactive
H1-2 (GeneID 3006) | 0.602 | 1.1 | 1.49 | inactive
LOC387632 (retired record) (GeneID 387632) | 2.28 | 1.53 | 1.61 | inactive
IQGAP2 (GeneID 10788) | 2.28 | 2.38 | 2.56 | active
SLC25A10 (GeneID 1468) | 0.324 | 0.224 | 0.662 | inactive
SRGAP2C (GeneID 653464) | -0.939 | -1.15 | -1.03 | inactive
EEF1D (GeneID 1936) | -0.359 | 0.746 | 0.0457 | inactive
MYH8 (GeneID 4626) | 0.825 | 0.0697 | 0.435 | inactive
PLAT (GeneID 5327) | 1.07 | 1.4 | 1.52 | inactive
SLC12A4 (GeneID 6560) | -0.589 | 0.153 | -0.192 | inactive
MRPS26 (GeneID 64949) | 0.214 | 0.0151 | 0.303 | inactive
VTA1 (GeneID 51534) | 0.627 | -0.689 | -0.291 | inactive
MON1A (GeneID 84315) | -0.272 | -0.0934 | -0.344 | inactive
SCG2 (GeneID 7857) | -1.51 | 0.36 | -0.341 | inactive
CBR3 (GeneID 874) | 0.0159 | -0.0133 | -0.0479 | inactive
NOX3 (GeneID 50508) | -1.47 | -0.746 | -0.962 | inactive
CD177 (GeneID 57126) | 0.457 | -0.492 | -0.659 | inactive
ARFGAP1 (GeneID 55738) | 0.00937 | -0.426 | -0.307 | inactive
LGI2 (GeneID 55203) | -0.0642 | -1.66 | 0.38 | inactive
DYDC1 (GeneID 143241) | -0.0649 | -0.245 | 0.0163 | inactive
CPT1A (GeneID 1374) | 0.623 | -0.119 | 0.37 | inactive
MAGEL2 (GeneID 54551) | 0.643 | 0.659 | -1.8 | inactive
PSD (GeneID 5662) | -0.798 | -0.757 | -0.228 | inactive
ZNF347 (GeneID 84671) | -1.02 | -1.03 | -0.952 | inactive
TMSB10 (GeneID 9168) | 0.996 | 0.198 | 1.79 | inactive
KLHL5 (GeneID 51088) | 1.33 | -0.731 | 0.127 | inactive
LUC7L2 (GeneID 51631) | -1.43 | -1.11 | -0.237 | inactive
SLC6A6 (GeneID 6533) | -0.556 | -0.954 | -0.561 | inactive
COX20 (GeneID 116228) | 0.26 | 0.829 | 1.21 | inactive
FN1 (GeneID 2335) | -1.08 | -1.98 | -0.494 | inactive
LOC442020 (retired record) (GeneID 442020) | 0.331 | 0.339 | 0.47 | inactive
ZNF230 (GeneID 7773) | 0.682 | -0.168 | -0.497 | inactive
RGS19 (GeneID 10287) | -0.026 | 0.109 | 0.0715 | inactive
LHFPL1 (GeneID 340596) | 1.61 | 1.49 | 1.12 | inactive
GTF2IRD1 (GeneID 9569) | 0.64 | 0.232 | 0.136 | inactive
CLCN3 (GeneID 1182) | -0.518 | -0.83 | -0.336 | inactive
LOC400163 (retired record) (GeneID 400163) | 1.25 | 0.968 | 0.229 | inactive
SCLT1 (GeneID 132320) | -0.0299 | -0.545 | -0.0533 | inactive
ING1 (GeneID 3621) | -0.801 | -0.939 | -0.801 | inactive
GLG1 (GeneID 2734) | -1.23 | -1.9 | -0.912 | inactive
ENTPD7 (GeneID 57089) | -1.51 | -0.285 | -0.189 | inactive
BRI3 (GeneID 25798) | -0.668 | -2.27 | -0.26 | inactive
XRCC2 (GeneID 7516) | 1.19 | 0.892 | 1.29 | inactive
CEP72 (GeneID 55722) | 0.375 | 1.22 | 0.436 | inactive
CTBP1-DT (GeneID 92070) | -1.02 | -0.127 | -0.052 | inactive
LOC440460 (retired record) (GeneID 440460) | -0.0304 | -0.14 | -0.214 | inactive
